PubChem BioAssay AID1224826 – NIAID | 2016

Test: 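Genes that change LPS-induced Tnf promoter activity in mouse macrophages when knocked down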 (primary screen)
System: RAW264.7 G9 macrophages from mouse bearing reporters for p65 (GFP) and the Tnf promoter (mCherry)
Knock-down reagent: siRNA pool against mouse genes, 100 nM
Timing: 16 h of LPS stimulation, after 2 days of siRNA transfection
Conditions: bacterial lipopolysaccharide (Salmonella minnesota R595), 10 ng/ml
Detection: 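Imaged Tnf reporter mCherry in nuclei, minus background, normalised per plate to the median and expressed as robust z-scores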
Scale: Tnf reporter robust z-score: higher = stronger Tnf promoter reporter signal after LPS
Call rule: 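a well counts as active at a score of -1.3 or below (Tlr4 knock-down control median) or above 3 (raised signal); controls and wells holding fewer than 50 cells are excluded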
Calls: active = Tnf reporter clearly lowered or raised; inactive = no clear change in Tnf reporter
Shown is a random part of about 17,000 deposited reagents. Of all reagents, about 1,110 (6.6%) are marked active. 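Active means lowered or raised reporter signal; replicate intensities are raw and not normalised per plate.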 A number with no mark means an inactive call. Not all columns of the deposit are shown. Reagent sequences are not shown.

Vmn1r222 (vomeronasal 1 receptor 222) gave fewer than 50 cells in well fewer than 50 cells per well; well left out of calls.
With knock-down of Triqk (triple QxxK/R motif containing) the results were Tnf reporter robust z-score -0.12; fewer than 50 cells in well enough cells in well.
Syf2 (SYF2 homolog, RNA splicing factor (S. cerevisiae)) gave Tnf reporter robust z-score 1.21; fewer than 50 cells in well enough cells in well.
Egfl6 (EGF-like-domain, multiple 6) showed Tnf reporter robust z-score -0.23; fewer than 50 cells in well enough cells in well.
For Vmn1r220 (vomeronasal 1 receptor 220), the entry reads Tnf reporter robust z-score 1.95; fewer than 50 cells in well enough cells in well.
Against Med8 (mediator complex subunit 8), the entry reads fewer than 50 cells in well fewer than 50 cells per well; well left out of calls.
With knock-down of Or9a4 (olfactory receptor family 9 subfamily A member 4), the record shows fewer than 50 cells in well fewer than 50 cells per well; well left out of calls.
After knock-down of Gulp1 (GULP, engulfment adaptor PTB domain containing 1), the screen gave Tnf reporter robust z-score -0.94; fewer than 50 cells in well enough cells in well.
With knock-down of Tulp4 (TUB like protein 4), the record shows fewer than 50 cells in well fewer than 50 cells per well; well left out of calls.
With knock-down of Or51f2 (olfactory receptor family 51 subfamily F member 2), the screen gave fewer than 50 cells in well fewer than 50 cells per well; well left out of calls.
Ubr7 gave Tnf reporter robust z-score -0.64; fewer than 50 cells in well enough cells in well.
Depletion of Lyzl1 (lysozyme-like 1) resulted in: Tnf reporter robust z-score -0.5; fewer than 50 cells in well enough cells in well.
With knock-down of Nipsnap3b (nipsnap homolog 3B), the screen gave Tnf reporter robust z-score 0.96; fewer than 50 cells in well enough cells in well.
Silencing of Chit1 (chitinase 1) came out at: fewer than 50 cells in well fewer than 50 cells per well; well left out of calls.
After knock-down of Pnn (pinin), the screen gave Tnf reporter robust z-score -0.35; fewer than 50 cells in well enough cells in well.
For Il12rb2 (interleukin 12 receptor, beta 2) the deposit lists Tnf reporter robust z-score -0.23; fewer than 50 cells in well enough cells in well.
Against Rpl18 (ribosomal protein L18) the deposit lists Tnf reporter robust z-score -0.83; fewer than 50 cells in well enough cells in well.
After knock-down of Panx1 (pannexin 1) the results were Tnf reporter robust z-score -0.28; fewer than 50 cells in well enough cells in well.
Silencing of Proser2 (proline and serine rich 2) came out at: Tnf reporter robust z-score -1.03; fewer than 50 cells in well enough cells in well.
Against Ackr3 (atypical chemokine receptor 3), the entry reads Tnf reporter robust z-score 0.75; fewer than 50 cells in well enough cells in well.
Scgb1b27 (secretoglobin, family 1B, member 27) scored Tnf reporter robust z-score 0.02; fewer than 50 cells in well enough cells in well.
